{"source": "PubChem BioAssay AID1259254 (NCATS, 2017)", "assay": "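Gene knock-downs that lead to re-replication, shown by excess G2 DNA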 (primary screen)", "cells": "human HCT116 colorectal cancer cells", "reagent": "single siRNA against human genes", "time to read-out": "3 days", "detection": "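Imaged Hoechst DNA stain sorts each cell into a cycle phase by DNA amount; per plate, G2 fraction set to 0% for non-targeting and 100% for GMNN siRNA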", "reading the numbers": "G2 robust z-score: higher = more G2 cells, more excess DNA replication", "call rule": "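An siRNA counts as active if its G2 robust z-score lies at least 5 MADs above the screen median; here such calls match roughly 38% of GMNN control or more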", "note": "This is a random part of about 59,000 reagents. In the full data, about 1,550 (2.6%) got an active call. 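G2 share is only a proxy for re-replication; each gene was hit by three separate siRNAs, and active genes were retested.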 Unmarked entries are inactive. Reagents against one gene are numbered here. Further read-outs or replicates are left out here. Not given: the amount of reagent."}
{"target gene": "HAND1 (heart and neural crest derivatives expressed 1)", "reagent no.": 1, "G2 robust z-score": 0.752}
{"target gene": "HAND1 (heart and neural crest derivatives expressed 1)", "reagent no.": 2, "G2 robust z-score": -0.171}
{"target gene": "HAND1 (heart and neural crest derivatives expressed 1)", "reagent no.": 3, "G2 robust z-score": -1.02}
{"target gene": "KIFC3 (kinesin family member C3)", "reagent no.": 1, "G2 robust z-score": -1.1}
{"target gene": "KIFC3 (kinesin family member C3)", "reagent no.": 2, "G2 robust z-score": 2.67}
{"target gene": "KIFC3 (kinesin family member C3)", "reagent no.": 3, "G2 robust z-score": -0.578}
{"target gene": "SPG21 (SPG21 abhydrolase domain containing, maspardin)", "reagent no.": 1, "G2 robust z-score": -1.21}
{"target gene": "SPG21 (SPG21 abhydrolase domain containing, maspardin)", "reagent no.": 2, "G2 robust z-score": 1.03}
{"target gene": "SPG21 (SPG21 abhydrolase domain containing, maspardin)", "reagent no.": 3, "G2 robust z-score": -0.0828}
{"target gene": "TSHZ2 (teashirt zinc finger homeobox 2)", "reagent no.": 1, "G2 robust z-score": 0.441}
{"target gene": "TSHZ2 (teashirt zinc finger homeobox 2)", "reagent no.": 2, "G2 robust z-score": -0.796}
{"target gene": "TSHZ2 (teashirt zinc finger homeobox 2)", "reagent no.": 3, "G2 robust z-score": -1.19}

Entries listed so far whose target name begins with S or s:
{"target gene": "SPG21 (SPG21 abhydrolase domain containing, maspardin)", "reagent no.": 1, "G2 robust z-score": -1.21}
{"target gene": "SPG21 (SPG21 abhydrolase domain containing, maspardin)", "reagent no.": 2, "G2 robust z-score": 1.03}
{"target gene": "SPG21 (SPG21 abhydrolase domain containing, maspardin)", "reagent no.": 3, "G2 robust z-score": -0.0828}
